± gives the standard error. Many entries were measured with a wide error.
B1: glmS ribozyme (parent)
chain: AUAAAAGCGCCAGAACUACAGAAAUGUAGUUGACGAGGAGGAGGUUUAUCGAAUUUUCGGCGGAUGCCUCCAAA

Variants of: B1
Assay: self-cleavage kobs at 160 uM GlcN6P; higher = faster cleavage; RNA array
Conditions: with glucosamine-6-phosphate
How it was run: (§1)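 Glucosamine-6-phosphate, from 40 μM to 10 mM in HEPES/KCl/Mg(OAc)2 buffer, was flowed over sequenced MiSeq chips carrying barcoded ribozyme variants transcribed in situ by E. coli RNA polymerase. A hybridised Cy3 probe tracked the variants at 37 °C as tiles were imaged over ~14 h. kobs, kcat and KM were obtained by fitting normalised per-tile medians to exponential decays and then applying weighted Michaelis–Menten fits across concentrations.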

Variant | self-cleavage kobs at 160 uM GlcN6P [s⁻¹]
C50U | < 1e-05
C50U C68A | 2.51e-05 ± 2e-05
C50U C70U | 2.26e-05 ± 1.6e-05
C50U U54A C70U | 4.13e-05 ± 2.3e-05
G51A U69A | 2.04e-05 ± 2e-05
G51U C70G | 2.28e-05 ± 1.2e-05
A52G C68G | 3.1e-05 ± 2.1e-05
A52U C68G | 1.65e-05 ± 1.5e-05
A53C U69G | 3.94e-05 ± 3.6e-05
A53G G66C C71G | 2.85e-05 ± 2.1e-05
U55A C68A C71G | 4.15e-05 ± 2.6e-05
U55G C67A C68G | 6.39e-05 ± 4.6e-05
U56G C58A | 1.99e-05 ± 1.3e-05
U57A C61G C67U U69A | 5.79e-05 ± 3.1e-05
U57A C70G | 2.33e-05 ± 1.3e-05
U57G | < 1e-05
C58A C67U C71A | 2.91e-05 ± 2.1e-05
C58U U69A | 2.41e-05 ± 1.9e-05
G59C A64G C67A | 0.00197 ± 0.0012
G59C C68A | 1.76e-05 ± 1.7e-05
U65G U69C C71U | 2.82e-05 ± 1.9e-05
U69A C71G | 2.29e-05 ± 1.6e-05
U69G C71A | 1.97e-05 ± 1.9e-05
C70A C71A | 1.87e-05 ± 1.5e-05

Variants of: B1
Assay: self-cleavage kobs at 10000 uM GlcN6P; higher = faster cleavage; RNA array
Conditions: with glucosamine-6-phosphate
How it was run: as §1

Variant | self-cleavage kobs at 10000 uM GlcN6P [s⁻¹]
A53C U69G | 2.18e-05 ± 1.2e-05
U57A C70G | 1.59e-05 ± 1.2e-05
C58U U69A | 1.53e-05 ± 1.4e-05
A6C C50G | 1.79e-05 ± 1.6e-05
A6G C50G U54C | 2.24e-05 ± 2.2e-05
A6U A15C C70U | 3.19e-05 ± 1.7e-05
G7U C70G | 0.000759 ± 0.00051
C10G | < 1e-05

Taken from above.
For self-cleavage kobs at 10000 uM GlcN6P [s⁻¹], U57A C70G is listed with 1.59e-05 ± 1.2e-05
For self-cleavage kobs at 10000 uM GlcN6P [s⁻¹], G7U C70G is listed with 0.000759 ± 0.00051
For self-cleavage kobs at 10000 uM GlcN6P [s⁻¹], A6U A15C C70U is listed with 3.19e-05 ± 1.7e-05

Variants of: B1
Assay: self-cleavage kobs at 2500 uM GlcN6P; higher = faster cleavage; RNA array
Conditions: with glucosamine-6-phosphate
How it was run: as §1

Variant | self-cleavage kobs at 2500 uM GlcN6P [s⁻¹]
U57A C61G C67U U69A | 3.66e-05 ± 3.3e-05
C58A C67U C71A | 3.91e-05 ± 3.1e-05
C58U U69A | 3.95e-05 ± 2e-05
U69G C71A | 2.09e-05 ± 1.9e-05
A6C A12U A14G C16U | 9.97e-05 ± 5.8e-05
A6C A15G U56A | 2.51e-05 ± 1.8e-05
A6C C50G | 2.65e-05 ± 1.9e-05
A6C C67A | 2.36e-05 ± 1.7e-05
A6C U47C U54G | 3.11e-05 ± 2.9e-05
A6C U47G | 2.07e-05 ± 1.7e-05
A6G A14G C16G A53U | 5.59e-05 ± 2.9e-05
A6G A14U U47A A52C C68G | 4.76e-05 ± 3.6e-05
A6G A36C C50G | 3.21e-05 ± 2.3e-05
A6G C50G U54C | 3.58e-05 ± 1.9e-05
A6G U30A A53U | 3.29e-05 ± 1.8e-05
A6G U57A C68G | 0.000122 ± 8.2e-05
A6U A12C U56A | 3.64e-05 ± 1.9e-05
A6U A15C C70U | 1.68e-05 ± 1.5e-05
A6U A15G G62U U69G | 3.71e-05 ± 3.6e-05
A6U C16G U55A | 2.1e-05 ± 1.9e-05
A6U C50A U56C U57C C70G | 2.44e-05 ± 2.4e-05
A6U G21A C67G | 3.34e-05 ± 2.3e-05
A6U G29U | 1.82e-05 ± 1.2e-05
A6U G37A | 0.00576 ± 0.0055
A6U G51C U56A U69G C70A | 2.67e-05 ± 2.4e-05
A6U G59C C67G | 8.7e-05 ± 4.6e-05
A6U U30A U55G | 3.1e-05 ± 2e-05
A6U U31C U54A | 3.32e-05 ± 2.1e-05

Variant | self-cleavage kobs at 2500 uM GlcN6P [s⁻¹]
A6U U31G C61G C70U | 3.05e-05 ± 2.6e-05
G7A C16U A39U | 5.51e-05 ± 3.2e-05
G7A C50G U54C G63A | 6.37e-05 ± 3.4e-05
G7A G13A U30A U31G C50A C68G | 2.95e-05 ± 2.8e-05
G7C C34A A48G U56G C71U | < 1e-05
G7U A48U C50G U54G | 4.99e-05 ± 3.5e-05
G7U C70G | 0.00029 ± 0.00021
C8G U30G G37A G66A U69G | 2.43e-05 ± 1.5e-05
C8U A33G G38A G59A C70G | 4.19e-05 ± 2.5e-05
C8U G62A C71U | 3.88e-05 ± 3.4e-05
G9A C50G | 5.31e-05 ± 3.9e-05
G9U C34G C58G C68U | 4.45e-05 ± 3.7e-05
G9U C50G U54A | 4.72e-05 ± 2.6e-05
C10A A12U C68G | 3.71e-05 ± 2.6e-05
C10A A15G G32U C70G | 5.31e-05 ± 2.8e-05
C10A A36C C68G | 2.62e-05 ± 1.9e-05
C10A C11U A36U C70U C71G | 0.000106 ± 5.5e-05
C10A C71G | 3.76e-05 ± 2e-05
C10A G35A A42U U57G | 0.000153 ± 8.9e-05
C10A G59U | 1.55e-05 ± 1.3e-05
C10A G60A C70A | 3.99e-05 ± 2.6e-05
C10G | < 1e-05
C10G A52G C68G C71U | 2.65e-05 ± 2e-05
C10G U47G C70U C71G | 2.57e-05 ± 2e-05
C10U A12G C50G | 5.51e-05 ± 4.2e-05
C10U C50G C68U C70G | 0.000236 ± 0.00013
C10U C50U C68G | 2.47e-05 ± 2e-05

Source: the supplement of paper PMC7125110
